In publication PMC10869442 one finds binding data, which are given here for one molecule.

In this experiment the target is T1, RIPK-HA (A. thaliana) (UniProt Q9ZUF4).
T1 sequence: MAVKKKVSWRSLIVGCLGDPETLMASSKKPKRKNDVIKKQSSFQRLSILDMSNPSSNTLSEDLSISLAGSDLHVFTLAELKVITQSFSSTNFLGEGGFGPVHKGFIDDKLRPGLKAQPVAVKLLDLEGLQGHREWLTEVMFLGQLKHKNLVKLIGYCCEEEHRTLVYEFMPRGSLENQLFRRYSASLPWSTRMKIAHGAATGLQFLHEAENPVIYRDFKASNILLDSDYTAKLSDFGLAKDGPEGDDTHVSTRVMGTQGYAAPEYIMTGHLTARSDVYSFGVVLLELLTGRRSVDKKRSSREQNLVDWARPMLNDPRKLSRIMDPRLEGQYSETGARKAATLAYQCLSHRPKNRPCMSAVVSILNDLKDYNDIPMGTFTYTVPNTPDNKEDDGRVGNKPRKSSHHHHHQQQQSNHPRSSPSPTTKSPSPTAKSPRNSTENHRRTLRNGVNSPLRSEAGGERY
As to the kind of experiment: co-IP; extracts of N. benthamiana leaves coexpressing HA-tagged RPM1, RIPK or RPS2 and GFP-fused RIN4/NOI proteins, 3 d after infiltration; anti-HA antibody on Dynabeads protein G, overnight at 4 °C; CoIP buffer 50 mM Tris HCl, 125 mM NaCl, 0.1% tween-20, 1 mM DTT, 10% glycerol, pH 7.4; anti-GFP blot.

Results are given in words; binding and its absence hold for the method and conditions named. In cells and extracts the contact can be indirect. Some results given as binding are weak or reduced against the parent protein; the word gives no strength. Where a sequence is shown, tags or fusion partners need not be part of it.

B1: RIN4 fused to GFP (protein, UniProt Q8GYN5 1-211)
chain: MARSNVPKFGNWEAEENVPYTAYFDKARKTRAPGSKIMNPNDPEYNSDSQSQAPPHPPSSRTKPEQVDTVRRSREHMRSREESELKQFGDAGGSSNEAANKRQGRASQNNSYDNKSPLHKNSYDGTGKSRPKPTNLRADESPEKVTVVPKFGDWDENNPSSADGYTHIFNKVREERSSGANVSGSSRTPTHQSSRNPNNTSSCCCFGFGGK
On to B1, for which the binding entry was “binds”.
